Laboratory results reported in paper PMC7353009, “Identification of Substrates of Cytoplasmic Peptidyl-Prolyl Cis/Trans Isomerases and Their Collective Essentiality in Escherichia Coli” (International Journal of Molecular Sciences, 2020).
No constants are given. Whether binding was seen depends on the method and setting. Binding seen in cells or lysates may run through a third protein. These calls come from enrichment with a bait or labelling near it, and not all partners need be listed. Where a sequence is shown, tags or fusion partners need not be part of it.

By UniProt entry, the sequences of proteins in these tests, tags left out.
UniProt P0A6U3: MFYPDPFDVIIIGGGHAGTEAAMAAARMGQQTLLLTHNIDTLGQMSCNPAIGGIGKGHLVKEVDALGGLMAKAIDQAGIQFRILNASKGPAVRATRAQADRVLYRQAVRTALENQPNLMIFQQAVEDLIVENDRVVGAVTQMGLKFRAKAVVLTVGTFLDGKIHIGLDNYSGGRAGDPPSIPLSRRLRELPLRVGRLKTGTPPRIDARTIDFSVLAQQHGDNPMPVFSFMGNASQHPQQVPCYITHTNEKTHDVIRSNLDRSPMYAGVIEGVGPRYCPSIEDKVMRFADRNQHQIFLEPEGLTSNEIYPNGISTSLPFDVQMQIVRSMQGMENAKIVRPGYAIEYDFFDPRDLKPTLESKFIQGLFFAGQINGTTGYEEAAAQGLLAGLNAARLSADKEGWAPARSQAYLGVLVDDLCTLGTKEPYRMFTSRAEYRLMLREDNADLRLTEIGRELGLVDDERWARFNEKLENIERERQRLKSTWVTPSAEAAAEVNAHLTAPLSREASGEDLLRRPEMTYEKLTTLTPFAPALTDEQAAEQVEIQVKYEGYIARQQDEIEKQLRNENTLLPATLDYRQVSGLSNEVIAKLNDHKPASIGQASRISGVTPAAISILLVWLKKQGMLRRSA
UniProt P0AEZ3: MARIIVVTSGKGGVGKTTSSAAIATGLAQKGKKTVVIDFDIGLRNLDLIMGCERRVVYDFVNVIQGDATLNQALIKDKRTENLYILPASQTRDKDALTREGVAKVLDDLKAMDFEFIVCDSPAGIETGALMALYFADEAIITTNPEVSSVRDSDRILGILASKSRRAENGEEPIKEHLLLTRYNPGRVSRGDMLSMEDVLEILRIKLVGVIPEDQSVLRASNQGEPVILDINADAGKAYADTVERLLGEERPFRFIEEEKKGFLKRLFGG
UniProt P0A7G6: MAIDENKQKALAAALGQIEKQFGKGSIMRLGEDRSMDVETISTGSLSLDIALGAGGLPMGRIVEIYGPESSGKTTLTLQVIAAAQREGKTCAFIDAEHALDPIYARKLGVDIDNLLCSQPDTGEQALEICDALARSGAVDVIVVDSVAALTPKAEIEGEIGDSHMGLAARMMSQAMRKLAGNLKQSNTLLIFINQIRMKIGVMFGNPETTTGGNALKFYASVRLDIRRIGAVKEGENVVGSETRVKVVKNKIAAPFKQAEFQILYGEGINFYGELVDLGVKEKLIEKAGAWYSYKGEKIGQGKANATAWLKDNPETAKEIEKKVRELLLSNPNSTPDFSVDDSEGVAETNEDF
UniProt P0A9P0: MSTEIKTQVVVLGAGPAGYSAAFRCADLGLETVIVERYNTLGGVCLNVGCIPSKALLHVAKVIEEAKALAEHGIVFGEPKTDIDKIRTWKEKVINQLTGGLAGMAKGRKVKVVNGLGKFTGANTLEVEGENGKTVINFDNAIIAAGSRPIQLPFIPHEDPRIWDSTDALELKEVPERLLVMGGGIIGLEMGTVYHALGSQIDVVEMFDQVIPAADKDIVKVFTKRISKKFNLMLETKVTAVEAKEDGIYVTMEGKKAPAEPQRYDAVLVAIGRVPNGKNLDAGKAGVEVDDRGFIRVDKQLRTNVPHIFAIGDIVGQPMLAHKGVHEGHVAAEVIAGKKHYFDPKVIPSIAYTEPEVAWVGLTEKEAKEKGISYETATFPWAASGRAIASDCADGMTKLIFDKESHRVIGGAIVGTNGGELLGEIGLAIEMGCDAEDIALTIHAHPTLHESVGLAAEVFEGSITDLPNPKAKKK
UniProt P0A6H1: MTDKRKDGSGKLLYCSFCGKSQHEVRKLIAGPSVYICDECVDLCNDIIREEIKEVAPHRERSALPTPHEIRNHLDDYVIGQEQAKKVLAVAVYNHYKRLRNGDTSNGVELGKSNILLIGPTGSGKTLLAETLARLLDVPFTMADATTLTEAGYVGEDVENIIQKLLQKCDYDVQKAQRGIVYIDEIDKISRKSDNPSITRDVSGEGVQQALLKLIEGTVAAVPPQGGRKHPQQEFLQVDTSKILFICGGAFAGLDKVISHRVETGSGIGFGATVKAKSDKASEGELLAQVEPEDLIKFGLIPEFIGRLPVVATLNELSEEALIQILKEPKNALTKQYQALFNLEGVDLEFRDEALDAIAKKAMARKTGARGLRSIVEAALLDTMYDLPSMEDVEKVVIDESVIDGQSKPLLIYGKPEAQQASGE
UniProt P0A6P9: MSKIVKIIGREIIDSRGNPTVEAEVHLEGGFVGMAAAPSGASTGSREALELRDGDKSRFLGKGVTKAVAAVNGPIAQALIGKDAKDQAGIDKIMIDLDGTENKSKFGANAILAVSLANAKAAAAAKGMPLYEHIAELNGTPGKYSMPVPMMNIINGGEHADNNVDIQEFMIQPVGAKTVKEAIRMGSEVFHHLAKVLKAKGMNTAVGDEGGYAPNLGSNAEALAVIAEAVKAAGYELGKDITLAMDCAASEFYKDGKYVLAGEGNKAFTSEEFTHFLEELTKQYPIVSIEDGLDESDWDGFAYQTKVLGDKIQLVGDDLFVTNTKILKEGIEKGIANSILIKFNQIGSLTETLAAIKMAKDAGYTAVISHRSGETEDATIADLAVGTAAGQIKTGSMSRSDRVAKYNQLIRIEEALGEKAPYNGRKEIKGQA
UniProt P13029: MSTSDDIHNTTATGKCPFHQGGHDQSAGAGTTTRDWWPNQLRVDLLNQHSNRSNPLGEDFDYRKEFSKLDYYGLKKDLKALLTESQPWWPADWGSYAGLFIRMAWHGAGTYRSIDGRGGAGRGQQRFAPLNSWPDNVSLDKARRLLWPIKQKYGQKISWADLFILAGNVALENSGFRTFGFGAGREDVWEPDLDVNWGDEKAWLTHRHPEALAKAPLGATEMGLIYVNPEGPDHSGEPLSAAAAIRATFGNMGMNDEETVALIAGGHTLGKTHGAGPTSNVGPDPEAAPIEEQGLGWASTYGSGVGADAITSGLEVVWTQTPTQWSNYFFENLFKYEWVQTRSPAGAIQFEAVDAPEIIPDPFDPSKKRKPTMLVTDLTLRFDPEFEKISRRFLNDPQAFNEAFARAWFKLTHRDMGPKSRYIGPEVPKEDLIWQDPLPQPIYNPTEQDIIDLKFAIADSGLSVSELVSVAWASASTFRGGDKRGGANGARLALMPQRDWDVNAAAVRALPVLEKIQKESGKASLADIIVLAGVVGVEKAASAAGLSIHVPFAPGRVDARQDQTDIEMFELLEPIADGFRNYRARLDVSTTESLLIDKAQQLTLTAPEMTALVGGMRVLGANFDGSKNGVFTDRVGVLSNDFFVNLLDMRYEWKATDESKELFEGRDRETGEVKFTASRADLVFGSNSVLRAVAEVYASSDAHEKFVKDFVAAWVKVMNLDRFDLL
UniProt P0A9A6: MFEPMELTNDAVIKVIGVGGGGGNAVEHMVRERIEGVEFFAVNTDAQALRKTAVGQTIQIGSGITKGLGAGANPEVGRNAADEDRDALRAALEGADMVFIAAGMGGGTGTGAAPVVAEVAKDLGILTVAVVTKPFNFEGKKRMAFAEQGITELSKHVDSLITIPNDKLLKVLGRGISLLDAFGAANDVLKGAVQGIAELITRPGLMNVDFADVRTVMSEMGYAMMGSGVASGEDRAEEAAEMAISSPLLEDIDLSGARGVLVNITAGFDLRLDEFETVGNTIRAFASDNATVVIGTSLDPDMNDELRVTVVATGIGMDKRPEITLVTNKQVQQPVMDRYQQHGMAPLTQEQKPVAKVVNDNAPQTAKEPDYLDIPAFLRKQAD
UniProt P0A6H5: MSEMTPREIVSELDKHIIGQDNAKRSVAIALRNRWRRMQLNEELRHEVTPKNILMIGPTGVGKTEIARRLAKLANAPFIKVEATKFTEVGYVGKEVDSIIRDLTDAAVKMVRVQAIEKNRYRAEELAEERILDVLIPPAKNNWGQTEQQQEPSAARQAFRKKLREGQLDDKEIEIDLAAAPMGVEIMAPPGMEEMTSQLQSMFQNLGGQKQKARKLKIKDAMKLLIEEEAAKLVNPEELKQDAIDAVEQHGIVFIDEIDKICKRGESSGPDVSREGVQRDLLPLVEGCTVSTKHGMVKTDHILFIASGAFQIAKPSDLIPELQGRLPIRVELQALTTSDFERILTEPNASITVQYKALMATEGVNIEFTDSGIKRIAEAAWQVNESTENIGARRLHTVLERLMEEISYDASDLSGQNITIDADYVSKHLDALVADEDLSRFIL

T1: Hexa-His-tagged PpiC (wild type) (E. coli, UniProt P0A9L5 1-93)
T1 construct: PpiC, parvulin peptidyl-prolyl cis/trans isomerase, E. coli; coding region of the ppiC gene in pET24b; The tag is called cleavable; also called wt PpiC; wild-type PpiC; source: E. coli T7 express derivative lacking all six PPIs (SR21984), IPTG-induced; in lysate on Ni-NTA for co-elution; purified (Ni-NTA) for ITC; not shown: His6, C-terminal, kept
T1 sequence (looked up): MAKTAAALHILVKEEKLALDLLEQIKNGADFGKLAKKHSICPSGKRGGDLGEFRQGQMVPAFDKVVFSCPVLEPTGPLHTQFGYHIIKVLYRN

T2: His6-tagged PpiB (wild type) (E. coli) (UniProt P23869)
T2 sequence: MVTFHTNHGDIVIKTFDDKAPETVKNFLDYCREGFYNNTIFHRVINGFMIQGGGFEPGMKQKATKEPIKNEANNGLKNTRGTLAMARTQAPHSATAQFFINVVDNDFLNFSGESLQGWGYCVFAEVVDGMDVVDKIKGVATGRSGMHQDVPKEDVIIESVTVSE


These molecules were tested against T1, Hexa-His-tagged PpiC (wild type) (assay: affinity purification with mass spectrometry; His6-tagged PPI induced with 0.1 mM IPTG in an E. coli T7 express derivative lacking all six PPIs (SR21984); soluble lysate on Ni-NTA beads, 50 mM NaH2PO4, 300 mM NaCl, eluted with a linear imidazole gradient (50-500 mM); co-eluting proteins resolved by SDS-PAGE (for FkpB also 2D gels) and identified by MALDI-TOF).

Row | binding | Molecule
1 | binds | polyphosphate kinase (Ppk) (protein, UniProt P0A7B1 1-688) MGQEKLYIEKELSWLSFNERVLQEAADKSNPLIERMRFLGIYSNNLDEFYKVRFAELKRRIIISEEQGSNSHSRHLLGKIQSRVLKADQEFDGLYNELLLEMARNQIFLINERQLSVNQQNWLRHYFKQYLRQHITPILINPDTDLVQFLKDDYTYLAVEIIRGDTIRYALLEIPSDKVPRFVNLPPEAPRRRKPMILLDNILRYCLDDIFKGFFDYDALNAYSMKMTRDAEYDLVHEMEASLMELMSSSLKQRLTAEPVRFVYQRDMPNALVEVLREKLTISRYDSIVPGGRYHNFKDFINFPNVGKANLVNKPLPRLRHIWFDKAQFRNGFDAIRERDVLLYYPYHTFEHVLELLRQASFDPSVLAIKINIYRVAKDSRIIDSMIHAAHNGKKVTVVVELQARFDEEANIHWAKRLTEAGVHVIFSAPGLKIHAKLFLISRKENGEVVRYAHIGTGNFNEKTARLYTDYSLLTADARITNEVRRVFNFIENPYRPVTFDYLMVSPQNSRRLLYEMVDREIANAQQGLPSGITLKLNNLVDKGLVDRLYAASSSGVPVNLLVRGMCSLIPNLEGISDNIRAISIVDRYLEHDRVYIFENGGDKKVYLSSADWMTRNIDYRIEVATPLLDPRLKQRVLDIIDILFSDTVKARYIDKELSNRYVPRGNRRKVRAQLAIYDYIKSLEQPE
2 | binds | SeqA (protein, UniProt P0AFY8 1-181) MKTIEVDDELYSYIASHTKHIGESASDILRRMLKFSAASQPAAPVTKEVRVASPAIVEAKPVKTIKDKVRAMRELLLSDEYAEQKRAVNRFMLLLSTLYSLDAQAFAEATESLHGRTRVYFAADEQTLLKNGNQTKPKHVPGTPYWVITNTNTGRKCSMIEHIMQSMQFPAELIEKVCGTI
3 | binds | AhpF subunit of alkyl hydroperoxide reductase (protein, UniProt P35340 1-521) MLDTNMKTQLKAYLEKLTKPVELIATLDDSAKSAEIKELLAEIAELSDKVTFKEDNSLPVRKPSFLITNPGSNQGPRFAGSPLGHEFTSLVLALLWTGGHPSKEAQSLLEQIRHIDGDFEFETYYSLSCHNCPDVVQALNLMSVLNPRIKHTAIDGGTFQNEITDRNVMGVPAVFVNGKEFGQGRMTLTEIVAKIDTGAEKRAAEELNKRDAYDVLIVGSGPAGAAAAIYSARKGIRTGLMGERFGGQILDTVDIENYISVPKTEGQKLAGALKVHVDEYDVDVIDSQSASKLIPAAVEGGLHQIETASGAVLKARSIIVATGAKWRNMNVPGEDQYRTKGVTYCPHCDGPLFKGKRVAVIGGGNSGVEAAIDLAGIVEHVTLLEFAPEMKADQVLQDKLRSLKNVDIILNAQTTEVKGDGSKVVGLEYRDRVSGDIHNIELAGIFVQIGLLPNTNWLEGAVERNRMGEIIIDAKCETNVKGVFAAGDCTTVPYKQIIIATGEGAKASLSAFDYLIRTKTA
4 | binds | FabH (protein, UniProt P0A6R0 1-317) MYTKIIGTGSYLPEQVRTNADLEKMVDTSDEWIVTRTGIRERHIAAPNETVSTMGFEAATRAIEMAGIEKDQIGLIVVATTSATHAFPSAACQIQSMLGIKGCPAFDVAAACAGFTYALSVADQYVKSGAVKYALVVGSDVLARTCDPTDRGTIIIFGDGAGAAVLAASEEPGIISTHLHADGSYGELLTLPNADRVNPENSIHLTMAGNEVFKVAVTELAHIVDETLAANNLDRSQLDWLVPHQANLRIISATAKKLGMSMDNVVVTLDRHGNTSAASVPCALDEAVRDGRIKPGQLVLLEAFGGGFTWGSALVRF
5 | binds | BipA GTPase (protein, UniProt P0DTT0 1-607) MIEKLRNIAIIAHVDHGKTTLVDKLLQQSGTFDSRAETQERVMDSNDLEKERGITILAKNTAIKWNDYRINIVDTPGHADFGGEVERVMSMVDSVLLVVDAFDGPMPQTRFVTKKAFAYGLKPIVVINKVDRPGARPDWVVDQVFDLFVNLDATDEQLDFPIVYASALNGIAGLDHEDMAEDMTPLYQAIVDHVPAPDVDLDGPFQMQISQLDYNSYVGVIGIGRIKRGKVKPNQQVTIIDSEGKTRNAKVGKVLGHLGLERIETDLAEAGDIVAITGLGELNISDTVCDTQNVEALPALSVDEPTVSMFFCVNTSPFCGKEGKFVTSRQILDRLNKELVHNVALRVEETEDADAFRVSGRGELHLSVLIENMRREGFELAVSRPKVIFREIDGRKQEPYENVTLDVEEQHQGSVMQALGERKGDLKNMNPDGKGRVRLDYVIPSRGLIGFRSEFMTMTSGTGLLYSTFSHYDDVRPGEVGQRQNGVLISNGQGKAVAFALFGLQDRGKLFLGHGAEVYEGQIIGIHSRSNDLTVNCLTGKKLTNMRASGTDEAVVLVPPIRMTLEQALEFIDDDELVEVTPTSIRIRKRHLTENDRRRANRAPKDD

What follows are molecules tested against T2, His6-tagged PpiB (wild type) (E. coli) in the same assay as above.

Row | binding | Molecule
6 | binds | AcnB (protein, UniProt P36683 1-865) MLEEYRKHVAERAAEGIAPKPLDANQMAALVELLKNPPAGEEEFLLDLLTNRVPPGVDEAAYVKAGFLAAIAKGEAKSPLLTPEKAIELLGTMQGGYNIHPLIDALDDAKLAPIAAKALSHTLLMFDNFYDVEEKAKAGNEYAKQVMQSWADAEWFLNRPALAEKLTVTVFKVTGETNTDDLSPAPDAWSRPDIPLHALAMLKNAREGIEPDQPGVVGPIKQIEALQQKGFPLAYVGDVVGTGSSRKSATNSVLWFMGDDIPHVPNKRGGGLCLGGKIAPIFFNTMEDAGALPIEVDVSNLNMGDVIDVYPYKGEVRNHETGELLATFELKTDVLIDEVRAGGRIPLIIGRGLTTKAREALGLPHSDVFRQAKDVAESDRGFSLAQKMVGRACGVKGIRPGAYCEPKMTSVGSQDTTGPMTRDELKDLACLGFSADLVMQSFCHTAAYPKPVDVNTHHTLPDFIMNRGGVSLRPGDGVIHSWLNRMLLPDTVGTGGDSHTRFPIGISFPAGSGLVAFAAATGVMPLDMPESVLVRFKGKMQPGITLRDLVHAIPLYAIKQGLLTVEKKGKKNIFSGRILEIEGLPDLKVEQAFELTDASAERSAAGCTIKLNKEPIIEYLNSNIVLLKWMIAEGYGDRRTLERRIQGMEKWLANPELLEADADAEYAAVIDIDLADIKEPILCAPNDPDDARPLSAVQGEKIDEVFIGSCMTNIGHFRAAGKLLDAHKGQLPTRLWVAPPTRMDAAQLTEEGYYSVFGKSGARIEIPGCSLCMGNQARVADGATVVSTSTRNFPNRLGTGANVFLASAELAAVAALIGKLPTPEEYQTYVAQVDKTAVDTYRYLNFNQLSQYTEKADGVIFQTAV
7 | binds | KatE (protein, UniProt P21179 1-753) MSQHNEKNPHQHQSPLHDSSEAKPGMDSLAPEDGSHRPAAEPTPPGAQPTAPGSLKAPDTRNEKLNSLEDVRKGSENYALTTNQGVRIADDQNSLRAGSRGPTLLEDFILREKITHFDHERIPERIVHARGSAAHGYFQPYKSLSDITKADFLSDPNKITPVFVRFSTVQGGAGSADTVRDIRGFATKFYTEEGIFDLVGNNTPIFFIQDAHKFPDFVHAVKPEPHWAIPQGQSAHDTFWDYVSLQPETLHNVMWAMSDRGIPRSYRTMEGFGIHTFRLINAEGKATFVRFHWKPLAGKASLVWDEAQKLTGRDPDFHRRELWEAIEAGDFPEYELGFQLIPEEDEFKFDFDLLDPTKLIPEELVPVQRVGKMVLNRNPDNFFAENEQAAFHPGHIVPGLDFTNDPLLQGRLFSYTDTQISRLGGPNFHEIPINRPTCPYHNFQRDGMHRMGIDTNPANYEPNSINDNWPRETPPGPKRGGFESYQERVEGNKVRERSPSFGEYYSHPRLFWLSQTPFEQRHIVDGFSFELSKVVRPYIRERVVDQLAHIDLTLAQAVAKNLGIELTDDQLNITPPPDVNGLKKDPSLSLYAIPDGDVKGRVVAILLNDEVRSADLLAILKALKAKGVHAKLLYSRMGEVTADDGTVLPIAATFAGAPSLTVDAVIVPCGNIADIADNGDANYYLMEAYKHLKPIALAGDARKFKATIKIADQGEEGIVEADSADGSFMDELLTLMAAHRVWSRIPKIDKIPA
8 | binds | GlpD (protein, UniProt P13035 1-501) METKDLIVIGGGINGAGIAADAAGRGLSVLMLEAQDLACATSSASSKLIHGGLRYLEHYEFRLVSEALAEREVLLKMAPHIAFPMRFRLPHRPHLRPAWMIRIGLFMYDHLGKRTSLPGSTGLRFGANSVLKPEIKRGFEYSDCWVDDARLVLANAQMVVRKGGEVLTRTRATSARRENGLWIVEAEDIDTGKKYSWQARGLVNATGPWVKQFFDDGMHLPSPYGIRLIKGSHIVVPRVHTQKQAYILQNEDKRIVFVIPWMDEFSIIGTTDVEYKGDPKAVKIEESEINYLLNVYNTHFKKQLSRDDIVWTYSGVRPLCDDESDSPQAITRDYTLDIHDENGKAPLLSVFGGKLTTYRKLAEHALEKLTPYYQGIGPAWTKESVLPGGAIEGDRDDYAARLRRRYPFLTESLARHYARTYGSNSELLLGNAGTVSDLGEDFGHEFYEAELKYLVDHEWVRRADDALWRRTKQGMWLNADQQSRVSQWLVEYTQQRLSLAS

Target: T2, His6-tagged PpiB (wild type) (E. coli)
Assay: as above
Remark: another data set of the same source

Row | binding | Molecule
9 | binds | MnmG (from UniProt P0A6U3 1-629)
10 | binds | MinD (from UniProt P0AEZ3 1-270)
11 | binds | RecA (from UniProt P0A7G6 1-353)
12 | binds | LpdA (from UniProt P0A9P0 1-474)
13 | binds | ClpX (from UniProt P0A6H1 1-424)
14 | binds | Eno (from UniProt P0A6P9 1-432)
15 | binds | KatG (from UniProt P13029 1-726)
16 | binds | FtsZ (from UniProt P0A9A6 1-383)
17 | binds | heat shock protein HslU (from UniProt P0A6H5 1-443)
